Reference: article doi:10.1101/2022.02.03.478940
These are yes or no findings as the source states them, for the method shown. In cells and extracts the contact can be indirect. Some results given as binding are weak or reduced against the parent protein; the word gives no strength. Tags and fused reporters may be left off the sequences shown.

T1: C-terminally FLAG-tagged Tim18 (S. cerevisiae) (UniProt Q08749)
T1 sequence: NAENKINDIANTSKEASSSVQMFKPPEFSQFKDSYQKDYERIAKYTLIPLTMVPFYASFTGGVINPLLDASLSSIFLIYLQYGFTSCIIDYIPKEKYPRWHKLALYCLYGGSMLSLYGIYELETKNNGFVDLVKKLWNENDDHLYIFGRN


Target: T1, C-terminally FLAG-tagged Tim18 (S. cerevisiae)
Assay: co-IP

binding | Binder
binds | Sdh3 (protein, UniProt P33421 51-198) NVASEMNTKAAIAEEQILNKQRAKRPISPHLTIYQPQLTWYLSSLHRISLVLMGLGFYLFTILFGVSGLLGLGLTTEKVSNWYHQKFSKITEWSIKGSFAYLFAIHYGGAIRHLIWDTAKELTLKGVYRTGYALIGFTAVLGTYLLTL
binds | Yme1 (enzyme, UniProt P32795 1-747) MNVSKILVSPTVTTNVLRIFAPRLPQIGASLLVQKKWALRSKKFYRFYSEKNSGEMPPKKEADSSGKASNKSTISSIDNSQPPPPSNTNDKTKQANVAVSHAMLATREQEANKDLTSPDAQAAFYKLLLQSNYPQYVVSRFETPGIASSPECMELYMEALQRIGRHSEADAVRQNLLTASSAGAVNPSLASSSSNQSGYHGNFPSMYSPLYGSRKEPLHVVVSESTFTVVSRWVKWLLVFGILTYSFSEGFKYITENTTLLKSSEVADKSVDVAKTNVKFDDVCGCDEARAELEEIVDFLKDPTKYESLGGKLPKGVLLTGPPGTGKTLLARATAGEAGVDFFFMSGSEFDEVYVGVGAKRIRDLFAQARSRAPAIIFIDELDAIGGKRNPKDQAYAKQTLNQLLVELDGFSQTSGIIIIGATNFPEALDKALTRPGRFDKVVNVDLPDVRGRADILKHHMKKITLADNVDPTIIARGTPGLSGAELANLVNQAAVYACQKNAVSVDMSHFEWAKDKILMGAERKTMVLTDAARKATAFHEAGHAIMAKYTNGATPLYKATILPRGRALGITFQLPEMDKVDITKRECQARLDVCMGGKIAEELIYGKDNTTSGCGSDLQSATGTARAMVTQYGMSDDVGPVNLSENWESWSNKIRDIADNEVIELLKDSEERARRLLTKKNVELHRLAQGLIEYETLDAHEIEQVCKGEKLDKLKTSTNTVVEGPDSDERKDIGDDKPKIPTMLNA
